Results on one sequence are retold here after PMC9226502.

A negative result means that nothing was seen under these conditions. Tags and fusion partners may be left off the protein sequences shown.

For the series, the target named is T1, MutL WT (Escherichia coli) (UniProt P23367).
T1 sequence (looked up): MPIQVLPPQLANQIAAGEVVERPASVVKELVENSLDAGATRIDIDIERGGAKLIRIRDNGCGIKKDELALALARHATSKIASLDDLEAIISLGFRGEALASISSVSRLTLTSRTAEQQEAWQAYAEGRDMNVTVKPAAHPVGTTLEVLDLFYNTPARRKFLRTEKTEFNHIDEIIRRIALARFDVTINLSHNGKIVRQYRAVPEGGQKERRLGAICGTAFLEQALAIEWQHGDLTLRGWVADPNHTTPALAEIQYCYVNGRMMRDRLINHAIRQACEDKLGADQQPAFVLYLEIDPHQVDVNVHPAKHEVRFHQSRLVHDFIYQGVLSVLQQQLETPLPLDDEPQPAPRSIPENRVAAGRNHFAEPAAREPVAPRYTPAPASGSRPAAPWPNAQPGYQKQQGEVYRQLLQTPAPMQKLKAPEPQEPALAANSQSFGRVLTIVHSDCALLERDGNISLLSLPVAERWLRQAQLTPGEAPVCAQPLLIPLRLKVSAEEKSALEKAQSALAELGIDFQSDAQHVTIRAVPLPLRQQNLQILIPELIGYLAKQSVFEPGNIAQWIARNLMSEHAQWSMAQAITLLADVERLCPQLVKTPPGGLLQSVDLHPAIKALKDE
Description: fluorescence anisotropy. As to conditions: no nucleotide; FA: 20 mM HEPES pH 7.5, 150 mM NaCl, 5 mM MgCl2, 0.08% Tween 20, 20% glycerol, 2 mM DTT, 5 nM DNA, 25 C; recombinant protein; residues 1-615; label: 5'-FAM on primer S8. On the technique in general: Polarisation of emitted light reports the rotation of a fluorescent probe.

On to “AAGTGTCTGTCGTTTTAAGGACGAAGGACTC / GAGTCCTTCGTCCTT [3' resected primer/template junction]”, for which the binding result is given as “no binding”.
